Drawing on paper PMC5021333, this text covers binding for one molecule.

No constants are given. Whether binding was seen depends on the method and setting. In cells and extracts the contact can be indirect. Some results given as binding are weak or reduced against the parent protein; the word gives no strength. Tags and fused reporters may be left off the sequences shown.

The assay concerns the target Flag-tagged Hendra virus matrix protein (Hendra virus) (UniProt O89341). The assay can be described thus: co-IP.

B1: Myc-IKKε (IκB kinase epsilon) (enzyme, UniProt Q14164 1-716)
chain: MQSTANYLWHTDDLLGQGATASVYKARNKKSGELVAVKVFNTTSYLRPREVQVREFEVLRKLNHQNIVKLFAVEETGGSRQKVLVMEYCSSGSLLSVLESPENAFGLPEDEFLVVLRCVVAGMNHLRENGIVHRDIKPGNIMRLVGEEGQSIYKLTDFGAARELDDDEKFVSVYGTEEYLHPDMYERAVLRKPQQKAFGVTVDLWSIGVTLYHAATGSLPFIPFGGPRRNKEIMYRITTEKPAGAIAGAQRRENGPLEWSYTLPITCQLSLGLQSQLVPILANILEVEQAKCWGFDQFFAETSDILQRVVVHVFSLSQAVLHHIYIHAHNTIAIFQEAVHKQTSVAPRHQEYLFEGHLCVLEPSVSAQHIAHTTASSPLTLFSTAIPKGLAFRDPALDVPKFVPKVDLQADYNTAKGVLGAGYQALRLARALLDGQELMFRGLHWVMEVLQATCRRTLEVARTSLLYLSSSLGTERFSSVAGTPEIQELKAAAELRSRLRTLAEVLSRCSQNITETQESLSSLNRELVKSRDQVHEDRSIQQIQCCLDKMNFIYKQFKKSRMRPGLGYNEEQIHKLDKVNFSHLAKRLLQVFQEECVQKYQASLVTHGKRMRVVHETRNHLRLVGCSVAACNTEAQGVQESLSKLLEELSHQLLQDRAKGAQASPPPIAPYPSPTRKDLLLHMQELCEGMKLLASDLLDNNRIIERLNRVPAPPDV
Regarding B1, the binding entry was “binds”.
